# Test results published in PubChem BioAssay AID445 (National Center for Advancing Translational Sciences (NCATS), 2006).
# Some of the results follow. The main result of the screen is listed elsewhere. These columns were measured beside it and carry no call. Compounds called inactive in the main read-out are mostly missing here. The note in brackets gives the kind of curve behind each potency; many fits are weak.
# Experiment: IkB Signaling
# Conditions: ABC-DLBCL IkBa-CBG/CBR dual luciferase ratio (green luciferase fused to IkBa over red control in OCI-Ly3 lymphoma cells), 4 h
# Procedure, shortened: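 Luminescence ratio of IκBα-fused green versus native red beetle luciferase in OCI-Ly3 cells, 4 h post-doxycycline with compound; red signal alone, scaled from basal (0%) to zero light (-100%), flagged nonspecific or cytotoxic effects.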
# [1] = measured here: control luc red channel unless noted
# [2] = measured here: IkB-luc green channel
# [3] = measured here: control luc red channel
smiles,measurement,setting,value
COc1cccc(-c2nc(CS(=O)(=O)CC(=O)N3CCN(c4ccccn4)CC3)c(C)o2)c1,AC50,[1],"31.6 µM [falling, partial curve]"
COc1cccc2cc(C(=O)Nc3ccc(CC(=O)O)cc3)c(=O)oc12,AC50,[1],"1 µM [falling, partial curve]"
CCCCN1CC(c2nc3ccccc3n2CCCCOc2cc(C)cc(C)c2)CC1=O (centres undefined),AC50,[1],"12.6 µM [falling, partial curve]"
CCOc1ccc(S(=O)(=O)N2Cc3ccccc3CC2C(=O)Nc2ccc(NC(C)=O)cc2)cc1 (centres undefined),AC50,[1],"20 µM [falling, partial curve]"
CCN(C(=O)CCc1nc(-c2ccc(C)cc2)no1)c1cccc(C(F)(F)F)c1,AC50,[1],"31.6 µM [falling, single point]"
c1coc(-c2nc(-c3ccco3)c(-c3ccco3)nc2-c2ccco2)c1,AC50,[2],"39.8 µM [rising, single point]"
same,AC50,[3],"39.8 µM [falling, single point]"
COc1ccc(C(=O)Nc2ccc(S(=O)(=O)Nc3cc(C)nc(C)n3)cc2)cc1,AC50,[1],"15.8 µM [falling, single point]"
COc1cc(CNc2ccc3[nH]c(=O)[nH]c3c2)ccc1OCc1ccc(F)cc1Cl,AC50,[1],"0.158 µM [falling, full curve]"
COC(=O)c1ccc2c(=O)n3nc(Nc4ccc(F)cc4F)sc3nc2c1,AC50,[1],"0.1 µM [falling, full curve]"
COc1ccc(CN2CCc3c(c(=O)n4ncc(C(=O)N5CCN(c6ccccc6F)CC5)c4n3C)C2)cc1,AC50,[1],"39.8 µM [falling, partial curve]"
CS(=O)(=O)N(Cc1ccccc1)c1ccc(C(=O)Nc2cccc(Cl)c2)cc1,AC50,[1],"15.8 µM [falling, partial curve]"
Cc1cccc(N2CCN(C(=O)c3nn(C)c4c3CS(=O)(=O)c3ccccc3-4)CC2)c1C,AC50,[1],"12.6 µM [falling, partial curve]"
COc1ccc(Cn2ccc3nc(C)c(C(=O)N4CCN(c5cccc(OC)c5)CC4)cc3c2=O)cc1,AC50,[1],"39.8 µM [falling, single point]"
COc1ccc(NC(=O)c2c(NC(=O)C(F)(F)F)sc3c2CCCCC3)cc1,AC50,[1],"0.631 µM [falling, full curve]"
COc1ccc(Cl)cc1NC(=O)c1cc(-c2ccc3c(c2)OCO3)on1,AC50,[1],"0.126 µM [rising, full curve]"
Cc1ncc(CO)c2c1Oc1nc(-c3ccc(Cl)cc3)nc(SCC(=O)N3CCCCC3)c1C2,AC50,[1],"20 µM [falling, single point]"
Cc1cccc(CSc2nc3c(sc4ccccc43)c(=O)n2CCC(=O)NC(C)C)c1,AC50,[1],"39.8 µM [rising, single point]"
Cc1cccc(NC(=O)CSc2nc3ccc(NC(=O)COc4ccccc4C)cc3s2)c1,AC50,[1],"2.51 µM [falling, full curve]"
COc1ccc(NC(=O)c2oc3ccc(S(=O)(=O)N4CCC5(CC4)OCCO5)cc3c2C)cc1,AC50,[1],"3.98 µM [falling, full curve]"
CCn1c2c(c(=O)n3ncc(C(=O)Nc4cc(Cl)ccc4OC)c13)CN(Cc1ccc(OC)cc1)CC2,AC50,[1],"7.94 µM [falling, partial curve, poor fit]"
Cc1c(C(=O)OCCOc2ccccc2)[nH]c2c1C(=O)CC(c1ccc(C(C)(C)C)cc1)C2 (centres undefined),AC50,[1],"20 µM [falling, single point]"
CCOC(=O)C1CCN(C(=O)CCc2nc3ccccc3[nH]2)CC1,AC50,[1],"31.6 µM [falling, single point]"
O=C(c1cc(-c2ccco2)nn1-c1cccc(Cl)c1)N1CCCCC1,AC50,[1],"39.8 µM [rising, single point] [measured here: IkB-luc green channel]"
CC1CN(C(=O)NCc2ccccc2)c2cc(Cl)ccc2O1 (centres undefined),AC50,[1],"10 µM [falling, partial curve]"
COc1ccc(S(=O)(=O)N2CCN(C(=O)c3c(C)nn(-c4ccccc4)c3Cl)CC2)cc1,AC50,[1],"12.6 µM [falling, partial curve]"
COc1cc(NC(=O)N2CCc3c(sc4c3CCCC4)C2c2ccccc2)cc(OC)c1OC (centres undefined),AC50,[1],"6.31 µM [falling, partial curve]"
CCOc1ccc(CNC(=O)CSc2nnc(C)c3c(C)n(-c4ccc(Cl)cc4)nc23)cc1,AC50,[1],"7.94 µM [falling, partial curve]"
COc1ccc(OC)c2sc(N3CCN(C(=O)c4ccco4)CC3)nc12,AC50,[1],"20 µM [rising, partial curve, poor fit]"
COc1ccc(-c2cc(C(F)(F)F)nc(SCCC(=O)Nc3ccc(OC)c(OC)c3)n2)cc1,AC50,[1],"39.8 µM [falling, single point]"
CCN(CC)C(=O)c1c(NC(=O)c2cccc(C)c2)sc2c1CCC(C)C2 (centres undefined),AC50,[1],"0.1 µM [falling, full curve]"
Cc1ccc(NC(=O)c2sc3nc(-c4cccs4)ccc3c2N)cc1F,AC50,[1],"20 µM [falling, single point]"
OC(CN1CCN(c2ccccn2)CC1)Cn1c2ccccc2c2ccccc21 (centres undefined),AC50,[2],"39.8 µM [falling, single point]"
same,AC50,[3],"31.6 µM [falling, single point]"
Cc1ccc(-n2ncc3c(NC4CCCCCC4)ncnc32)cc1,AC50,[1],"10 µM [falling, partial curve]"
Cc1cc(C)c(-c2n[nH]c3c2C(c2ccccc2F)N(Cc2ccco2)C3=O)c(O)c1 (centres undefined),AC50,[1],"25.1 µM [falling, partial curve]"
O=c1[nH]c2cc(Br)ccc2n2cccc12,AC50,[1],"0.1 µM [rising, full curve]"
COc1ccc(Nc2ncnc3sc4c(c23)CCCC4)cc1,AC50,[1],"39.8 µM [falling, single point]"
C=C(C)COc1ccc(-c2[nH]ncc2Oc2cccc(OC)c2)c(O)c1,AC50,[1],"25.1 µM [falling, single point]"
CCN(CC)S(=O)(=O)c1ccc2c(c1)N(CC(=O)N1CCN(c3cccc(C)c3C)CC1)C(=O)CO2,AC50,[1],"39.8 µM [falling, single point]"
Clc1ccc(-n2ncc3c(NC4CCCC4)ncnc32)cc1,AC50,[1],"7.94 µM [falling, partial curve]"
CCOc1cc(CNS(=O)(=O)c2ccc3c(c2)C(C)(C)C(=O)N3)cc(OCC)c1OCC,AC50,[1],"0.158 µM [rising, full curve]"
CC(NC(=O)Cn1ccc2cc(S(=O)(=O)N3CCCCCC3)ccc21)c1ccccc1 (centres undefined),AC50,[1],"25.1 µM [falling, partial curve]"
O=C(NCc1ccco1)c1cc(-c2cccc(Cl)c2)on1,AC50,[1],"10 µM [falling, partial curve]"
COc1ccc(C)cc1NC(=O)Nc1nnc(N2CCCCC2)s1,AC50,[1],"15.8 µM [falling, partial curve]"
Cc1ccc(C(=O)Nc2ccc3c(c2)nc2n3CCSC2)cc1,AC50,[1],"20 µM [falling, partial curve]"
Cc1nn2c(=O)cc(COC(=O)c3cccc(NC(=O)COc4ccccc4C)c3)nc2s1,AC50,[1],"15.8 µM [falling, partial curve]"
Cc1ccc(N2C(=O)CCSC23C(=O)N(Cc2ccccc2)c2ccccc23)cc1 (centres undefined),AC50,[1],"39.8 µM [falling, single point]"
CCN(CC)C(=O)c1ccc2c(c1)N(Cc1ccc(C(F)(F)F)cc1)C(=O)c1ccccc1S2,AC50,[1],"12.6 µM [falling, partial curve]"
Cc1ccc(NC(=O)Nc2nnc(N3CCCC3)s2)cc1C,AC50,[1],"12.6 µM [falling, partial curve]"
Cn1c(=O)c(C(=O)O)nn(-c2ccccc2)c1=O,AC50,[1],"0.00631 µM [falling, full curve, poor fit]"
CCOC(=O)c1[nH]c(C)c(C(=O)N2CCN(c3ccc(F)cc3)CC2)c1C,AC50,[1],"15.8 µM [falling, partial curve]"
CCOc1ccccc1CNC(=O)C1CCCN(c2nnc(C)c3c(C)n(-c4ccccc4)nc23)C1 (centres undefined),AC50,[1],"15.8 µM [falling, partial curve]"
COc1ccc(C(=O)N2CCN(c3nc4cc(C)ccc4cc3C#N)CC2)c(OC)c1,AC50,[1],"25.1 µM [falling, single point]"
CCCN1C(=O)C(O)(CC(=O)c2ccc(OC)c(OC)c2)c2ccccc21 (centres undefined),AC50,[1],"25.1 µM [falling, single point]"
CCc1ccccc1N(C)C(=O)CCc1nc(-c2ccc(C)cc2)no1,AC50,[1],"15.8 µM [falling, partial curve]"
O=C(Nc1ccc2nc(SCCOc3ccccc3)sc2c1)c1cccs1,AC50,[1],"0.126 µM [falling, partial curve, poor fit]"
O=C(Nc1ccc(C(F)(F)F)cc1)c1cc(S(=O)(=O)NC2CCCCC2)ccc1F,AC50,[1],"25.1 µM [falling, partial curve]"
CCCCn1c(SCC(=O)NCc2ccco2)nc2ccc(N3CCOCC3)cc2c1=O,AC50,[1],"15.8 µM [falling, partial curve]"
COc1cccc(CNC(=O)CSc2ncc3c(n2)-c2cc(Cl)ccc2N(C)S3(=O)=O)c1,AC50,[1],"39.8 µM [rising, single point]"
CC(=O)c1c(C)[nH]c(C(=O)OCCCCN2C(=O)c3ccccc3C2=O)c1C,AC50,[2],"31.6 µM [falling, partial curve]"
same,AC50,[3],"10 µM [falling, partial curve]"
CCc1ccc(NC(=O)c2ccc(F)c(S(=O)(=O)NC3CCCCCC3)c2)cc1,AC50,[1],"25.1 µM [falling, partial curve]"
Cc1c(Cl)cccc1NC(=O)CN1C(=O)COc2ccc(S(=O)(=O)N3CCCCCC3)cc21,AC50,[1],"0.0794 µM [rising, full curve, poor fit]"

# Given with bars between the fields: entries from further up
smiles | measurement | setting | value
CCOc1cc(CNS(=O)(=O)c2ccc3c(c2)C(C)(C)C(=O)N3)cc(OCC)c1OCC | AC50 | [1] | 0.158 µM [rising, full curve]
CC(NC(=O)Cn1ccc2cc(S(=O)(=O)N3CCCCCC3)ccc21)c1ccccc1 (centres undefined) | AC50 | [1] | 25.1 µM [falling, partial curve]
